Measurements published in US8008484B2 (priority 2004, dated 2011).
Some results were stated once for a whole list of compounds, not compound by compound.

What was measured:
[1] = test system: Pyricularia oryzae; type: in vivo; conditions: active component concentration 500 ppm; foliar spray on paddy rice one day before inoculation; evaluated seven days after inoculation
[2] = test system: Botrytis cinerea; assay: Test for effect of foliage application against Botrytis cinerea (cucumber, pot test); type: in vivo; conditions: active component concentration 500 ppm; spray on cucumber cotyledons one day before inoculation; evaluated four days after inoculation

| SMILES | controlling value (%) [1] | controlling value (%) [2] |
| --- | --- | --- |
| COc1nc(OC)nc(C(O)c2cccc(C)c2NS(=O)(=O)C(F)F)n1 (stereo not shown) [Compound 18-53] | more than 80% | – |
| COc1cc(OC)nc(Cc2cccc(F)c2N(C(C)=O)S(=O)(=O)C(F)F)n1 [Compound 2-18] | – | more than 80% |
| COc1cc(OC)nc(C(O)c2cccc(F)c2NS(=O)(=O)C(F)(F)F)n1 (stereo not shown) [Compound 18-21] | more than 80% | – |
| COc1cc(OC)nc(Cc2cc(F)c(Cl)c(F)c2NS(=O)(=O)C(F)F)n1 [Compound 2-125] | more than 80% | – |
| COc1cc(OC)nc(Cc2cccc(Cl)c2NS(=O)(=O)CC(F)(F)F)n1 [Compound 14-22] | – | more than 80% |
| COc1cc(OC)nc(Cc2ccccc2NS(=O)(=O)C(F)F)n1 [Compound 2-1] | – | more than 80% |
| COc1cc(OC)nc(Cc2ccc(F)c(F)c2NS(=O)(=O)C(F)F)n1 [Compound 2-110] | – | more than 80% |
| COc1cc(OC)nc(Cc2ccc(F)c(C)c2NS(=O)(=O)CC(F)(F)F)n1 [Compound 13-8] | – | more than 80% |
| COc1cc(OC)nc(C(Cl)c2cccc(F)c2NS(=O)(=O)C(F)(F)F)n1 (stereo not shown) [Compound 12-127] | more than 80% | – |
| COc1cc(OC)nc(Cc2cc(C)cc(C)c2NS(=O)(=O)C(F)F)n1 [Compound 2-192] | – | more than 80% |
| COc1cc(OC)nc(Cc2cccc(Cl)c2NS(=O)(=O)C(F)F)n1 [Compound 14-35] | – | more than 80% |
| COC(=O)N(c1c(Cl)cccc1Cc1nc(OC)cc(OC)n1)S(=O)(=O)C(F)F [Compound 2-32] | more than 80% | – |
| COc1cc(OC)nc(C(O)c2cccc(Cl)c2NS(=O)(=O)C(F)F)n1 (stereo not shown) [Compound 18-26] | – | more than 80% |
| COc1cc(OC)nc(Cc2ccc(F)cc2NS(=O)(=O)C(F)F)n1 [Compound 2-61] | more than 80% | – |
| COc1cc(OC)nc(C(SC)c2cccc(F)c2NS(=O)(=O)C(F)F)n1 (stereo not shown) [Compound 1-14] | – | more than 80% |
| COc1cc(OC)nc(C(O)c2ccc(F)c(C)c2NS(=O)(=O)CC(F)(F)F)n1 (racemic) [Compound 12-137] | more than 80% | – |
| COc1cc(OC)nc(Cc2cc(F)ccc2NS(=O)(=O)C(F)F)n1 [Compound 2-62] | more than 80% | – |
| COc1cc(OC)nc(C(O)c2ccc(C)c(C)c2NS(=O)(=O)C(F)F)n1 (racemic) [Compound 4-187] | – | more than 80% |
| COc1cc(OC)nc(C(O)c2cc(C)cc(F)c2NS(=O)(=O)C(F)F)n1 (racemic) [Compound 4-107] | – | more than 80% |
| COc1nc(OC)nc(C(O)c2cccc(F)c2NS(=O)(=O)C(F)F)n1 (stereo not shown) [Compound 18-51] | – | more than 80% |
| COc1cc(OC)nc(Cc2cccc(Cl)c2N(C(=O)C2CC2)S(=O)(=O)C(F)F)n1 [Compound 2-191] | more than 80% | more than 80% |
| COc1cc(OC)nc(Cc2cc(C)c(F)cc2NS(=O)(=O)C(F)F)n1 [Compound 2-190] | more than 80% | – |
| COc1cc(OC)nc(C(O)c2cccc(F)c2NS(C)(=O)=O)n1 (stereo not shown) [Compound 18-2] | more than 80% | – |

| SMILES | controlling value (%) [1] | controlling value (%) [2] |
| --- | --- | --- |
| COc1cc(OC)nc(C(=O)c2cccc(Cl)c2N(C(C)=O)S(=O)(=O)C(F)F)n1 [Compound 3-22] | more than 80% | – |
| COc1cc(OC)nc(C(O)c2cccc(F)c2NS(=O)(=O)CCl)n1 (stereo not shown) [Compound 18-6] | more than 80% | more than 80% |
| COc1nc(OC)nc(C(=O)c2ccccc2NS(=O)(=O)C(F)F)n1 [Compound 9-48] | – | more than 80% |
| COc1cc(OC)nc(Cc2ccccc2NS(=O)(=O)C(F)(F)F)n1 [Compound 14-2] | – | more than 80% |
| COc1cc(OC)nc(C(O)c2ccccc2NS(=O)(=O)C(F)F)n1 (stereo not shown) [Compound 18-24] | more than 80% | more than 80% |
| COc1cc(OC)nc(Cc2cccc(F)c2NS(=O)(=O)CCl)n1 [Compound 14-8] | – | more than 80% |
| COc1cc(OC)nc(Cc2ccc(F)c(C)c2NS(=O)(=O)C(F)F)n1 [Compound 2-193] | more than 80% | – |
| COc1cc(OC)nc(C(=O)c2cccc(Cl)c2NS(=O)(=O)C(F)F)n1 [Compound 9-26] | – | more than 80% |
| COCc1c(F)ccc(Cc2nc(OC)cc(OC)n2)c1NS(=O)(=O)C(F)F [Compound 14-40] | – | more than 80% |
| COc1cc(OC)nc(C(O)c2cc(C)cc(Cl)c2NS(=O)(=O)C(F)F)n1 (racemic) [Compound 4-130] | more than 80% | more than 80% |
| COc1cc(OC)nc(C(O)c2ccccc2NS(=O)(=O)C(F)(F)F)n1 (stereo not shown) [Compound 18-20] | – | more than 80% |
| COc1cc(OC)nc(Cc2c(Cl)ccc(Cl)c2NS(=O)(=O)C(F)F)n1 [Compound 2-138] | – | more than 80% |
| COc1cc(OC)nc(C(O)c2ccc(F)cc2NS(=O)(=O)C(F)F)n1 (racemic) [Compound 4-186] | – | more than 80% |
| COc1cc(OC)nc(C(=O)c2cccc(F)c2NS(=O)(=O)C(F)F)n1 [Compound 9-25] | – | more than 80% |
| COc1cc(OC)nc(Cc2cccc(C)c2NS(=O)(=O)C(F)F)n1 [Compound 14-37] | more than 80% | more than 80% |
| COc1cc(OC)nc(C(O)c2ccc(F)c(C)c2NS(=O)(=O)C(F)F)n1 (racemic) [Compound 4-184] | more than 80% | – |
| COc1cc(OC)nc(C(O)c2cccc(F)c2NS(=O)(=O)C(F)F)n1 (stereo not shown) [Compound 18-25] | – | more than 80% |
| COc1cc(OC)nc(C(O)c2cc(C)cc(F)c2NS(=O)(=O)CC(F)(F)F)n1 (racemic) [Compound 12-131] | more than 80% | – |
| COc1cc(OC)nc(Cc2cccc(Cl)c2N(C(C)=O)S(=O)(=O)C(F)F)n1 [Compound 2-31] | more than 80% | more than 80% |
| COc1cc(OC)nc(C(O)c2cccc(F)c2NS(=O)(=O)CC(F)(F)F)n1 (stereo not shown) [Compound 18-10] | more than 80% | more than 80% |
| COc1cc(OC)nc(Cc2cccc(Cl)c2NS(=O)(=O)C(F)(F)F)n1 [Compound 14-20] | – | more than 80% |
| COc1cc(OC)nc(Cc2cccc(F)c2NS(=O)(=O)C(Cl)Cl)n1 [Compound 12-136] | – | more than 80% |
